Laboratory results reported in the supplement of paper PMC6078165.
The reference is the same well before dosing, and untreated signal decays as well.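 Labels refer to human fibroblasts, largely primary: uterine (C12385, HUF), lung (H6013), bone (Hs27A), adrenal (HADF), skin (WS1), plus mammary HMF and breast cancer-associated Hs343T. Cancer lines are basal-like or mesenchymal-like triple-negative breast cancer. The paper counts as hits responses shifting over 3x the replicate standard deviation. The tissue of the other fibroblasts is not given here.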

Tested on: MDAMB231
Assay: relative JC-1 red fluorescence (viability) vs pre-drug, coculture with fibroblast (fraction); higher = more viable cancer cells
Procedure: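 JC-1 labelled TNBC cells cocultured 1:1 (1,500 cells each) with CellTrace Violet stained primary or stromal fibroblasts in 384-well plates in FluoroBrite medium, treated with one of 42 anticancer drugs at 0.1, 1, 10 or 100 uM. JC-1 red fluorescence (mitochondrial integrity in cancer cells only) was read by plate reader every 8 h for 72 h. Values are normalised to each well's pre-drug value. The stock of one drug was tenfold lower, so its dose labels may be too high.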

CC(=O)O[C@H]1C(=O)[C@@]2(C)[C@H]([C@H](OC(=O)c3ccccc3)[C@]3(O)C[C@H](OC(=O)[C@H](O)[C@@H](NC(=O)c4ccccc4)c4ccccc4)C(C)=C1C3(C)C)[C@]1(OC(C)=O)CO[C@@H]1C[C@@H]2O [Paclitaxel]
relative JC-1 red fluorescence
Settings	8 h	16 h	24 h	32 h	40 h	48 h	56 h	64 h	72 h
0.1 µM, coculture fibroblast: C12385	0.792	0.727	0.6691	0.5968	0.5324	0.5157	0.487	0.493	0.496
0.1 µM, coculture fibroblast: H6013	0.902	0.815	0.7519	0.712	0.641	0.622	0.591	0.577	0.543
0.1 µM, coculture fibroblast: H6019	0.7599	0.628	0.613	0.543	0.504	0.508	0.484	0.4984	0.489
0.1 µM, coculture fibroblast: H6076	0.856	0.7461	0.67	0.645	0.608	0.586	0.578	0.575	0.595
0.1 µM, coculture fibroblast: H6231	0.93114	0.85	0.729	0.664	0.6	0.572	0.537	0.535	0.508
0.1 µM, coculture fibroblast: HADF	0.9002	0.873	0.774	0.7205	0.656	0.636	0.605	0.59	0.541
0.1 µM, coculture fibroblast: HCFa	0.9027	0.8221	0.76	0.701	0.625	0.578	0.539	0.503	0.453
0.1 µM, coculture fibroblast: HCPF	0.893	0.796	0.7016	0.686	0.64	0.607	0.569	0.5587	0.5507
0.1 µM, coculture fibroblast: HHSteC	0.92845	0.863	0.821	0.763	0.72	0.71	0.678	0.661	0.621
0.1 µM, coculture fibroblast: HMF	0.902	0.804	0.712	0.667	0.609	0.559	0.506	0.49	0.482
0.1 µM, coculture fibroblast: HPFa	0.9546	0.8839	0.819	0.7339	0.699	0.667	0.609	0.581	0.536
0.1 µM, coculture fibroblast: HUF	0.8514	0.708	0.716	0.593	0.543	0.528	0.49	0.498	0.491
0.1 µM, coculture fibroblast: Hs5	0.848	0.76029	0.716	0.681	0.659	0.613	0.589	0.586	0.577
0.1 µM, coculture fibroblast: Hs27A	0.8833	0.8379	0.7774	0.7349	0.693	0.647	0.65	0.628	0.598
0.1 µM, coculture fibroblast: Hs343T	0.843	0.724	0.624	0.584	0.541	0.501	0.459	0.456	0.446
0.1 µM, coculture fibroblast: WS1	0.78	0.672	0.62	0.554	0.496	0.48	0.44	0.451	0.444
1 µM, coculture fibroblast: C12385	0.7681	0.692	0.684	0.607	0.534	–	–	–	–
1 µM, coculture fibroblast: H6013	0.9083	0.831	0.796	0.74	0.688	–	–	–	–
1 µM, coculture fibroblast: H6019	0.767	0.681	0.672	0.614	0.579	–	–	–	–
1 µM, coculture fibroblast: H6076	0.818	0.732	0.693	0.667	0.629	–	–	–	–
1 µM, coculture fibroblast: H6231	0.9467	0.895	0.8068	0.768	0.703	–	–	–	–
1 µM, coculture fibroblast: HADF	0.882	0.8218	0.7806	0.73	0.673	–	–	–	–
1 µM, coculture fibroblast: HCFa	0.8934	0.8156	0.7709	0.712	0.644	–	–	–	–
1 µM, coculture fibroblast: HCPF	0.846	0.726	0.67	0.641	0.5713	–	–	–	–
1 µM, coculture fibroblast: HHSteC	0.917	0.872	0.8196	0.752	–	–	–	–	–
1 µM, coculture fibroblast: HMF	0.894	0.787	0.722	0.67	–	–	–	–	–
1 µM, coculture fibroblast: HPFa	0.935	0.8831	0.816	0.726	–	–	–	–	–
1 µM, coculture fibroblast: HUF	0.8662	0.744	0.748	0.627	–	–	–	–	–
1 µM, coculture fibroblast: Hs5	0.87	0.829	0.81	0.767	–	–	–	–	–
1 µM, coculture fibroblast: Hs27A	0.8882	0.8427	0.7919	0.762	–	–	–	–	–
1 µM, coculture fibroblast: Hs343T	0.844	0.702	0.644	0.601	–	–	–	–	–
1 µM, coculture fibroblast: WS1	0.77	0.681	0.641	0.558	–	–	–	–	–
